Data as given in PubChem BioAssay AID743454 (Peter MacCallum Cancer Centre, 2014)

Purpose: 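Knock-downs lowering viability or raising caspase 3/7 activity in vorinostat-treated resistant cells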 (primary screen)
Cell system: human HCT116-VR colon cancer cells, selected for vorinostat resistance
Reagent: siRNA pool against human genes, 40 nM siRNA pool
Duration: vorinostat for 24 h, read-out about 72 h after transfection
Treatment: vorinostat at 2.5 µM final
Read-out: 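Two measures, CellTiter-Fluor viability and luminescent caspase 3/7 activity, each as fold change against same-plate mock wells, mean of duplicates, then screen-wide robust z-score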
Reading the numbers: viability robust z-score: higher = more viable cells than screen typical; caspase robust z-score: higher = more caspase 3/7 activity than screen typical
Rule for the call: 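Hits are knock-downs in viability class RV1/RV2 or caspase class CA1/CA2, excluding ones that killed cells in the no-drug cell-count arm; hits then retested with single siRNAs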
In all, the deposit lists about 18,000 reagents; this is an unselected part. In the full data, 450 (2.5%) were called active. 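Single biological run; no consistent viability z cut-off exists, so the class columns, not z-scores, define the calls.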

OSBPL1A (oxysterol binding protein like 1A)
- viability hit class: no change
- caspase hit class: no change
- viability robust z-score: 0.92
- caspase robust z-score: 0.42
- outcome: inactive

MBTPS2 (membrane bound transcription factor peptidase, site 2)
- viability hit class: no change
- caspase hit class: no change
- viability robust z-score: 1.59
- caspase robust z-score: -0.45
- outcome: inactive

ZNF22 (zinc finger protein 22)
- viability hit class: no change
- caspase hit class: no change
- viability robust z-score: -0.32
- caspase robust z-score: -0.93
- outcome: inactive

UTP11 (UTP11 small subunit processome component)
- viability hit class: no change
- caspase hit class: no change
- viability robust z-score: -2.88
- caspase robust z-score: -1.58
- outcome: inactive

AFDN-DT (AFDN divergent transcript)
- viability hit class: no change
- caspase hit class: no change
- viability robust z-score: 0.52
- caspase robust z-score: -0.59
- outcome: inactive

PCDHGA9 (protocadherin gamma subfamily A, 9)
- viability hit class: no change
- caspase hit class: no change
- viability robust z-score: -0.12
- caspase robust z-score: 0.77
- outcome: inactive

CELSR2 (cadherin EGF LAG seven-pass G-type receptor 2)
- viability hit class: no change
- caspase hit class: no change
- viability robust z-score: -0.02
- caspase robust z-score: 0.13
- outcome: inactive

MAPK15 (mitogen-activated protein kinase 15)
- viability hit class: no change
- caspase hit class: no change
- viability robust z-score: 0.88
- caspase robust z-score: -0.06
- outcome: inactive

ACSM2A (acyl-CoA synthetase medium chain family member 2A)
- viability hit class: no change
- caspase hit class: no change
- viability robust z-score: -0.37
- caspase robust z-score: -1.02
- outcome: inactive

TRMT61B (tRNA methyltransferase 61B)
- viability hit class: no change
- caspase hit class: no change
- viability robust z-score: -0.58
- caspase robust z-score: -0.84
- outcome: inactive

LRRC32 (leucine rich repeat containing 32)
- viability hit class: no change
- caspase hit class: no change
- viability robust z-score: -0.38
- caspase robust z-score: 2.22
- outcome: inactive

ARHGEF28 (Rho guanine nucleotide exchange factor 28)
- viability hit class: no change
- caspase hit class: no change
- viability robust z-score: 0.82
- caspase robust z-score: -0.39
- outcome: inactive

2 successive entries already listed, quoted:
MBTPS2 (membrane bound transcription factor peptidase, site 2)
- viability hit class: no change
- caspase hit class: no change
- viability robust z-score: 1.59
- caspase robust z-score: -0.45
- outcome: inactive

ZNF22 (zinc finger protein 22)
- viability hit class: no change
- caspase hit class: no change
- viability robust z-score: -0.32
- caspase robust z-score: -0.93
- outcome: inactive
